# In all, about 220,000 compounds went through this assay and about 2,400 (1.1%) were called active. Inconclusive means that the source gave no clear call. Such entries were picked first, then a sample of the others. The call rests on the fitted dose curve; in most records, active means well fitted inhibition curve with a large enough effect; inconclusive means small, poorly fitted or top-dose-only effect, or effect the other way; inactive means no such curve, though single readings can be large or run the other way. Potencies beside an inconclusive call are fits to weak or partial responses and may not hold up.
# Experiment: qHTS Multiplex Assay to Identify Dual Action Probes in a Cell Model of Huntington: Aggregate Formation (GFP); further: nearly all actives have a fitted effect of over 60% in size
# Settings: PC12 HttQ103-GFP aggregates, Acumen cytometry, 40 h; activity change, negative = inhibition: at 46.1 µM (top of the series) unless noted
# Method in brief: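 PC12 cells with ecdysone-inducible HTT exon1 Q103-GFP, induced by 100 nM tebufenozide, given compounds in a concentration series. GFP aggregates (1–25 um, 6 SD above background) counted in lysates by laser-scanning cytometry, 488 nm excitation.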
# On the % scale 0 is the no-effect control and ±100 the full control effect; potency means the concentration at half of the fitted maximal effect.
Structure (SMILES),Potency,"activity change, negative = inhibition"
CCN=C1S/C(=C\c2cn(C(C)=O)nc2-c2ccccc2)C(=O)N1CC,"inconclusive: 35.5 µM [inhibitor, single point]",
O=S(=O)(NCc1ccccc1)c1ccc(Cl)cc1,,inactive: 4.68% [at 1.84 µM]
CCCCNC(=O)c1onc(CCl)c1C(=O)OC,"inconclusive: 35.5 µM [inhibitor, single point]",
CCOC(=O)c1cnc(SC)nc1Oc1cccc(NS(=O)(=O)c2ccc(C)cc2)c1,"inconclusive: 5.62 µM [activator, single point]",
O=C(NCCCn1ccnc1)c1ccc(N2CCCCCC2)c([N+](=O)[O-])c1,"inconclusive: 35.5 µM [inhibitor, single point]",
CC(C)(C)C(=O)CC1(O)C(=O)N(Cc2ccc(Cl)cc2)c2ccccc21 (centres undefined),,inactive: 7.15%
Cc1occc1C(=O)N1CCN(C(c2ccccc2)c2ccccc2)CC1,active: 20 µM,
N#CCCn1cc(C=C(C#N)C#N)c(-c2ccc(Cl)cc2)n1,,inactive: 7.5%
Clc1ccc(-c2nnc(CNC3CC3)o2)cc1,"inconclusive: 35.5 µM [inhibitor, single point]",
Cc1ccc(/C=N/NC(=O)NC23CC4CC(CC(C4)C2)C3)o1,,inactive: -14.9% [at 9.22 µM]
Cc1ccc(-n2c(C)cc(C(=O)COc3c(CO)cc(F)cc3CO)c2C)cc1C,"inconclusive: 20 µM [inhibitor, single point]",
COC(=O)[C@@]1(Cc2ccc(OC)cc2)[C@@H]2[C@@H](CC(=O)[C@H]2CC(=O)C(=O)N(C)C)CN1C(=O)c1ccccc1,"inconclusive: 12.6 µM [activator, partial curve]",
COc1ccc(OC)c(NC(=O)CSC2=C(C#N)C(c3ccco3)C3=C(CCCC3=O)N2)c1 (centres undefined),,inactive: 16.8%
CC1(C)NC(=O)N(CCCCOc2cccc(C(F)(F)F)c2)C1=O,"inconclusive: 35.5 µM [inhibitor, single point]",
Cc1ccc(NC(=S)NN(C)c2cc(C)nc(C)n2)cc1,"inconclusive: 5.62 µM [inhibitor, single point]",
Cc1[nH]nc2ncc(C(=O)c3ccccc3O)cc12,active: 6.31 µM,
O=C(Nc1nc2ccc(Cl)cc2s1)[C@@H]1CCCN1C(=O)c1cccs1,"inconclusive: 17.8 µM [activator, single point]",
Cc1ccc(C(=O)N/N=C/c2cc(C)n(-c3ccc(Br)cc3)c2C)cc1[N+](=O)[O-],,inactive: 16.1%
CCN1/C(=C/c2cc[n+](C)cc2)C=Cc2cc(C)ccc21,active: 8.91 µM,
CCCCNC(=O)NC1(C(F)(F)F)Oc2ccccc2O1,"inconclusive: 1.78 µM [activator, partial curve]",
CC(C)(C)C(=O)NC(=S)NNC(=O)c1sc2ccccc2c1Cl,active: 10 µM,
CCn1c(CNc2ccc(Cl)cc2)nnc1SCc1ccccc1,"inconclusive: 11.2 µM [inhibitor, single point]",

Structure (SMILES),Potency,"activity change, negative = inhibition"
Cc1ccc(C)c(C(=O)Cn2ncc(Cl)c(Cl)c2=O)c1,"inconclusive: 25.1 µM [inhibitor, single point]",
O=c1[nH]c2ccccc2c(O)c1-[n+]1ccccc1,,inactive: -2.29% [at 9.22 µM]
CCOC(=O)N1CCC2(O)CCCCC2C1c1ccc(F)cc1 (centres undefined),"inconclusive: 1.26 µM [inhibitor, partial curve]",
CCN(CC)c1ccc(/C=C2\CCC(/C=C(\C#N)C(=O)Nc3ccccc3F)=C2N2CCOCC2)cc1,"inconclusive: 3.55 µM [inhibitor, partial curve]",
COc1cc(OC)cc(C2=NC3(CCC(C)CC3)NC2=S)c1 (centres undefined),,inactive: -27.4%
CSc1nc2ccc(NC(=O)c3cc4ccccc4o3)cc2s1,"inconclusive: 5.62 µM [inhibitor, single point]",
Cc1cccc2cc3c(N)c(C(=O)Nc4ccc(N5CCOCC5)cc4)sc3nc12,"inconclusive: 28.2 µM [inhibitor, single point]",
Cc1ccc(C)n1NC(=O)c1cccs1,"inconclusive: 5.62 µM [inhibitor, single point]",
COc1cc(N(C(=O)Cc2cccs2)C(C(=O)NC2CCCCC2)c2ccc(C)cc2)ccc1-n1cnnn1 (centres undefined),"inconclusive: 35.5 µM [activator, single point]",
Cc1ccc(C)c(OCCCN2CCCC2)c1,"inconclusive: 1.26 µM [activator, single point]",
CCOC(=O)c1sc(NC(=O)CSc2nnnn2-c2ccc(C)cc2)c(C(=O)OCC)c1C,,inactive: 0.447%
O=C(CCN1CCN(C(c2ccccc2)c2ccccc2)CC1)N/N=C/c1ccc(O)cc1O,"inconclusive: 4.47 µM [inhibitor, full curve, poor fit]",
CCNC(=O)C(=O)Nc1ccc(OC)c(Cl)c1,"inconclusive: 14.1 µM [inhibitor, single point]",
COc1ccc(COc2ccccc2C(=O)NCc2ccccc2)cc1F,"inconclusive: 35.5 µM [inhibitor, single point]",
O=C(Nc1ccc(F)cc1)c1ccc(COc2ccccc2)cc1,,inactive: -7.84%
O=C1NC(=S)N/C1=C\C=C\c1ccccc1,,inactive: -3.1% [at 9.22 µM]
Cc1ccc(NC(=O)c2cc(S(=O)(=O)NCCC3=CCCCC3)ccc2F)cc1F,"inconclusive: 11.2 µM [inhibitor, partial curve]",
COC(=O)c1c(NC(=O)Cc2ccccc2)sc2c1C(C(=O)OC)CC2 (centres undefined),"inconclusive: 35.5 µM [inhibitor, single point]",
CC(=O)Nc1c(O)nc(SCC(=O)Nc2cccc(C)c2)[nH]c1=O,"inconclusive: 5.62 µM [inhibitor, single point]",
Cc1cc(Nc2nc3ccccc3nc2Cl)n(-c2ccccc2C)n1,"inconclusive: 35.5 µM [activator, single point]",
Cc1ccc(Cl)cc1N1CCN(C(=O)C2CCN(S(=O)(=O)c3c(C)nn(C)c3C)CC2)CC1,"inconclusive: 10 µM [inhibitor, partial curve]",
CCOc1ccc(CC(=O)NCc2ccc3c(c2)cc(C)n3C)cc1,"inconclusive: 35.5 µM [activator, partial curve]",

# Four successive records already listed, quoted:
Structure (SMILES),Potency,"activity change, negative = inhibition"
CC(=O)Nc1c(O)nc(SCC(=O)Nc2cccc(C)c2)[nH]c1=O,"inconclusive: 5.62 µM [inhibitor, single point]",
Cc1cc(Nc2nc3ccccc3nc2Cl)n(-c2ccccc2C)n1,"inconclusive: 35.5 µM [activator, single point]",
Cc1ccc(Cl)cc1N1CCN(C(=O)C2CCN(S(=O)(=O)c3c(C)nn(C)c3C)CC2)CC1,"inconclusive: 10 µM [inhibitor, partial curve]",
CCOc1ccc(CC(=O)NCc2ccc3c(c2)cc(C)n3C)cc1,"inconclusive: 35.5 µM [activator, partial curve]",

# — PubChem BioAssay AID1688 (National Center for Advancing Translational Sciences (NCATS), 2009)
